Laboratory results taken from article PMC12058595.
Tags and fusion partners may be left off the protein sequences shown.

Biological target: T1, His6-Zur (Synechocystis sp. PCC 6803) (UniProt P73084)
T1 sequence (looked up): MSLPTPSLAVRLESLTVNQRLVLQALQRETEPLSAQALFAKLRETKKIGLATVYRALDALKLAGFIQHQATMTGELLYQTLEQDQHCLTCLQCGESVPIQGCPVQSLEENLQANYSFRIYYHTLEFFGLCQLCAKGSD
Test: EMSA
Details: 0, 0.3, 0.6 ug Zur, 30 ng DNA; 10 mM Tris (pH not stated), 50 mM KCl, 1 mM DTT, 5% glycerol, BSA in lanes without Zur; room temperature 20 min; 6% native PAGE in TBE at 4 C, SYBR Safe stain; recombinant protein; residues 1-138; protein details: N-terminal His6 (pET28a, NdeI/XhoI); probe letters rebuilt from the primers and the genome

Row | Sequence | binding result
1 | GATTTAGGTTCAGCAAAATGGCCATCTACTTATCATAATCACTGGCGATCGCCAAGCTTTGTTTTTGTCCTCCGGAAATATTTGCCCCTACCGCACCGAGAATCGTTTCGTATTGCTCGGGAAATTGATTAACAAATCACGGGCATGGATAATTTGTCAAGCTAAAGTCACCTTAGAAAGGTGTATCTCAGGCAAGCTTAAAAATATAAATAACGTCAATTTTACAAAAAAAATGCTAGGGGAATATTAAGAGAACATTAAGGTTGTTGAAAATAGCTAAAAATAATTAAAATTTGTATGATTTTGACCAAAAGTGAACTTTGTGTTATGGTTACAGGGCGTGGTTGACTCGAGTTCAATACAGAACTCAAGGGCTCCGGGTAAATGTTTAAATTTTTGTAAAATCTGTAAAGCATTAATAAAAAACTTTTCCAAAAATTTGGATTTTACCTCAATCACT (double strand) [sll0723 promoter] | binds
2 | GTAACTCCTCGGCACTGAGATGTTCCCCCTCCGGCAAATTTTGAAAAATGGTGAGGATTTTTTCCCGCTGGGGAGTCAGTCGCCAACCACGGGCATTAAGTTCGGCTTTGAGGGAATCGGCGGTGTAGGACATGTTCTATGGGGGCGCTTAGAAGCAGTCTGGGCGATGGGATCCATCATAGTCCCTTGGCTCAGCAGTTGCAATAGTGGAGTCTTATTGAGAATAGATCCTAGAAAAAGTTTTATTTATCTTCCCCCGTCTGAAAATCTGAACCATGCGACCTTCCGCCCTTATTCCCCCCCAGCGTTATTTTGCCTACCTAACGTGGACCGATATTGAAGCTCTGCCGGATAAGGACAAAACCATTATTATTCAGCCCCTGGGTTCCATTGAACAGCATGGTCCCCATTTACCATTGGTGGTGGATGCAGCCATTTCTGAGGGGGTTTTG (double strand) [sll0567 (fur) promoter] | binds
3 | GTTGATCACTTTGCTATGGGAACAATGCAAATTAATGAGTAGAGTTTAACCCCATACTATTTCTAAAATCAAGCACCATTTCATCCCTTATCCCATTTCTTCAACGATCAGCCATGACTAATCGTTTTTGCTCTTCAATCTATGGGAAATCTATCCCTTGGGAAGTATCTATTGTTACATTTGCCATGATCAAATTCCCTTTTTTGATATAGGTTCAACTCTTTTTAGTTAAGTATCCCTAATTACTTAAGTAGGAGGAAAATCCCGAGTCGTCCCTCAAAAAGCTTTACTCTCAGACTGATTTTCGGTCTAATGTTCTTATTATTAAAATAACATTTAAGGTCATTAGCTCTTAATTTTGGAAGTATTCCTATGGCCGGTGATGGAGATGGCAGGATTTTCTGCGGGCCCTGCTTAAGGGTAAGAAAAAACTGTTTGCTCCGTTTAATGAGTTCAAA (double strand) [sll1291 gene cluster promoter] | binds
4 | ATCAGCGGTCTCCAAAATCAAGAATCAAACAAAGTAACTATTGGGTTAGTCTAGTACGGCTAATGCACCCGACTTCCCGGAACCCAAGTTAATTCCCGCCGGGGCATTTTAGTACGTTGAATAAAACTTTTCACCGCTAATATCGGTACAGAAAAATTGATTACGTCCTGGGCGAGTCCACAGACATCGCGTTCCCCTGTGGGGGCAATTACGGTAACGGCTCATAAATCTTTGTTAAAGATTACTTAACCCGTCAGTAAAATGCCGTAACACTAATTACCTTTTCCCCTTACTCCAGAGGAGAACAGCAGCGGCAAGCCACCAATCTCTGGTTTTTGGAAAGCCGCCCCTGGACTATGGAAAAAGTAGTTACTTGTTAAGTATAGTAACAGAAAAAGCTTTTCTGGCAAGATTTCTGCTTCTGGAGTTGGGGGTATCCTCTGGAAATTTAC (double strand) [sll1566 (GGPS) promoter] | binds
5 | GATAGGGAAAAGGGGCTGAGGCAATTTGTCATTGGCACCGGCGGCAAAAGTCTTTATCCTTTCAAAACCGTGCGCCCCAACAGTGAAGTTCAGGCAATGGGAGTTTATGGAGTGCTGAAAATGGAACTCCAATCCAACAGCTACCGCTGGCAATTCCTAACCGCCAACACCGACGAATTCAATGAACAGGGGAAGGATTTATGTCATTAAAGGGGGCAATCATGCCATTACTGGGGCCCTTTGCCATGGCCCAAAACCAGGAAAATACTAATAAATTCCATCACCCATTCTAATTCTCCTTTGCGGCAAACCTGCGCTAAGCTTATTCGTGAGCATTTCTCGGTTGTACCTATGGACTTTTCTAGTAACGTTGCAGCGCAACTCAATGCGGGGACAATTTTGCCAGAGGGCATTGTTATTGTCACTCTCCTCCTTGTGCTAATTGTTGATTTGATTG (double strand) [sll0223 (ndhB) promoter] | binds
6 | ACTAATACTACTCAATTCTCGGTGGGGCAAATTGGGAATAATTACCCCTTTGTCCGTATCTCGGCCCCGACCTTCCGCCAAAAATAGCAGGGTATCCGCCACCCGGGTTAAACTTTCTGCTTCCCTCAGCCGCAAACGACGGTTAAGTTGCCGCAGACGGCGAGCAATGATCTGGGCTAAACGAATGCCCGCCATGGGCTCTGTTTGGAGAAAATTGTAAAATTCCGGAGCTGGTACACTGCACACTTCCGCCGGGGTAAGGGTGATGACGTCGGTGGAGCGGGGAGCCTCTTCGATCGCCGCCATTTCCCCGACAATCTCTCCCCGGCCGACAATGTTGAGGGTTACTTCCCGACCATCCACATTATGGGTGCGAATTTTGACCCAGCCATCCATGACGAAATAAACTGAGCCGCCCCAGTCATGTTCGAGGAGAATAACTTGGTTGGC (double strand) [sll1371 (sycrp1) promoter] | binds
7 | ACTCACCGTAATATCCATGGCATCTGCCACCGGAGCATCCTCAACTTGACCATTTTGCCCAACCTGTTCAACAGCGGGCTGACAGCCTAGGGTGCTCAAACCCAGAACAAAAGCAACACCAAGGGGTTGGACAAAGCGGGGAACAGCGGGGAAAATGAACATTACCGATGTGCAATACAGTGAAGATCAAGCTGATGGGAAATTTATCCCTTTGGCATTAGGACAATAAACGATAATCATTATCATTGCATAATTCCTCCACCTTGTCATGAGTCTTCCCACTCCTTCCCTTGCCGTTCGCCTAGAGTCCCTCACAGTCAACCAAAGACTGGTGCTCCAAGCTTTGCAAAGGGAAACGGAGCCCCTGTCGGCCCAAGCCCTCTTCGCCAAACTGCGGGAA (double strand) [slr2043 (znuA) promoter] | binds
